Results taken from PubChem BioAssay AID330 (DTP/NCI, 2004).
The list does not hold the whole screen: it gathers tests that were run many times, whatever their T/C, doses with no T/C, and many T/C values between a quarter and a half above the control. Further doses and runs are listed elsewhere. T/C: endpoint of the treated group in % of that of the vehicle group. Some doses have a count of surviving animals in place of a T/C: the source holds a T/C of zero for them, seemingly a mark for toxic or unscored doses. Some survivor counts are full or nearly so, which does not show that the dose was tolerated: survival well below the control is almost never listed, so the zero probably covers shortened survival too. Counts of survivors are from the toxicity check (mostly the fifth day) where no day follows; animals may have died later. Schedule codes are those of the source, read here as Q, the interval in days (D) or hours (H), X, the number of doses. Marks such as (2×) stand for listed records that agree. Some entries hold several experiments; the values are given in rising order. For survival time, this PubChem deposit counts one and a half times the control or more as active, and values a quarter to a half above the control carry no call in these data; other NCI protocols may use other cut-offs. Some T/C values carry the count of animals alive at the toxicity check (mostly the fifth day); without a count, all were alive then.

System: P388 leukemia ip, CD2F1 mice, survival T/C
Assay: NCI In Vivo Anticancer Drug Screen. Data for tumor model P388 Leukemia (intraperitoneal) in CD2F1 (CDF1) mice
Settings: T/C endpoint: median survival time, higher T/C = longer survival
[1] = dose: 200.0 micrograms/kg/injection, schedule: Q01DX005 (ip), vehicle: other

CC1OC(=O)C(C(C)C)NC(=O)C(C(C)C)OC(=O)C(C(C)C)NC(=O)C(C)OC(=O)C(C(C)C)NC(=O)C(C(C)C)OC(=O)C(C(C)C)NC(=O)C(C)OC(=O)C(C(C)C)NC(=O)C(C(C)C)OC(=O)C(C(C)C)NC1=O (stereo unspecified)
T/C (dose: 0.06 mg/kg/injection, schedule: Q01DX009 (ip), vehicle: other): 141 % of control
T/C (dose: 0.13 mg/kg/injection, schedule: Q01DX009 (ip), vehicle: other): 134 % of control
T/C (dose: 0.25 mg/kg/injection, schedule: Q01DX005 (ip), vehicle: Klucel (hydroxypropylcellulose) (HPC), evaluated on day 30): 132 % of control
T/C (dose: 0.25 mg/kg/injection, schedule: Q01DX005 (ip), vehicle: Klucel (hydroxypropylcellulose) (HPC), evaluated on day 60): 128 % of control
survivor count (dose: 0.25 mg/kg/injection, schedule: Q01DX009 (ip), vehicle: Klucel (hydroxypropylcellulose) (HPC)): 10 of 10
survivor count (dose: 0.25 mg/kg/injection, schedule: Q01DX009 (ip), vehicle: other): 6 of 10
T/C (dose: 0.4 mg/kg/injection, schedule: Q01DX005 (ip), vehicle: DMSO): 135 % of control
T/C (dose: 0.5 mg/kg/injection, schedule: Q01DX005 (ip), vehicle: Klucel (hydroxypropylcellulose) (HPC), evaluated on day 30): 145 % of control
T/C (dose: 0.5 mg/kg/injection, schedule: Q01DX005 (ip), vehicle: Klucel (hydroxypropylcellulose) (HPC), evaluated on day 60): 138 % of control
survivor count (dose: 0.5 mg/kg/injection, schedule: Q01DX009 (ip), vehicle: other): 2 of 10
survivor count (dose: 0.8 mg/kg/injection, schedule: Q01DX005 (ip), vehicle: DMSO): 0 of 5
survivor count (dose: 0.8 mg/kg/injection, schedule: Q01DX005 (ip), vehicle: other): 3 of 5
T/C (dose: 0.94 mg/kg/injection, schedule: Q01DX009 (ip), vehicle: Klucel (hydroxypropylcellulose) (HPC)): 149 % of control
T/C (dose: 1.0 mg/kg/injection, schedule: Q01DX005 (ip), vehicle: Klucel (hydroxypropylcellulose) (HPC)): 138 % of control
T/C (dose: 1.0 mg/kg/injection, schedule: Q01DX009 (ip), vehicle: Klucel (hydroxypropylcellulose) (HPC)): 130 % of control
survivor count (dose: 1.0 mg/kg/injection, schedule: Q01DX009 (ip), vehicle: other): 0 of 10
survivor count (dose: 1.25 mg/kg/injection, schedule: Q01DX009 (ip), vehicle: saline): 6 of 6
survivor count (dose: 1.6 mg/kg/injection, schedule: Q01DX005 (ip), vehicle: DMSO): 0 of 5
survivor count (dose: 1.6 mg/kg/injection, schedule: Q01DX005 (ip), vehicle: other): 0 of 5
survivor count (dose: 1.88 mg/kg/injection, schedule: Q01DX009 (oral), vehicle: other): 2 of 10
T/C (dose: 2.0 mg/kg/injection, schedule: Q01DX005 (ip), vehicle: Klucel (hydroxypropylcellulose) (HPC)): 138 % of control
survivor count (dose: 2.0 mg/kg/injection, schedule: Q01DX009 (ip), vehicle: other): 0 of 10
T/C (dose: 2.5 mg/kg/injection, schedule: Q01DX009 (ip), vehicle: Klucel (hydroxypropylcellulose) (HPC)): 145 % of control
survivor count (dose: 2.5 mg/kg/injection, schedule: Q01DX009 (ip), vehicle: other): 0 of 10
T/C (dose: 2.5 mg/kg/injection, schedule: Q01DX009 (ip), vehicle: saline with Tween-80): 135 % of control
survivor count (dose: 3.2 mg/kg/injection, schedule: Q01DX005 (ip), vehicle: other): 0 of 5
T/C (dose: 3.75 mg/kg/injection, schedule: Q01DX009 (ip), vehicle: Klucel (hydroxypropylcellulose) (HPC)): 142 % of control
survivor count (dose: 3.75 mg/kg/injection, schedule: Q01DX009 (oral), vehicle: other): 0 of 10
survivor count (dose: 5.0 mg/kg/injection, schedule: Q01DX009 (ip), vehicle: other): 0 of 10
T/C (dose: 5.0 mg/kg/injection, schedule: Q04DX003 (ip), vehicle: saline with Tween-80): 144 and 149 % of control
survivor count (dose: 7.5 mg/kg/injection, schedule: Q01DX009 (oral), vehicle: other): 0 of 10
survivor count (dose: 10.0 mg/kg/injection, schedule: Q01DX009 (ip), vehicle: other): 0 of 10
survivor count (dose: 10.0 mg/kg/injection, schedule: Q01DX009 (ip), vehicle: saline with Tween-80): 6 of 6
survivor count (dose: 15.0 mg/kg/injection, schedule: Q01DX009 (ip), vehicle: Klucel (hydroxypropylcellulose) (HPC)): 3 of 10
survivor count (dose: 15.0 mg/kg/injection, schedule: Q01DX009 (oral), vehicle: Klucel (hydroxypropylcellulose) (HPC)): 10 of 10
survivor count (dose: 15.0 mg/kg/injection, schedule: Q01DX009 (oral), vehicle: other): 0 of 10
survivor count (dose: 16.0 mg/kg/injection, schedule: Q01DX005 (ip), vehicle: Klucel (hydroxypropylcellulose) (HPC)): 9 of 10
survivor count (dose: 20.0 mg/kg/injection, schedule: Q01DX009 (ip), vehicle: Klucel (hydroxypropylcellulose) (HPC)): 10 of 10
survivor count (dose: 20.0 mg/kg/injection, schedule: Q01DX009 (ip), vehicle: other): 0 of 10
survivor count (dose: 20.0 mg/kg/injection, schedule: Q01DX009 (ip), vehicle: saline with Tween-80): 6 of 6
survivor count (dose: 20.0 mg/kg/injection, schedule: Q04DX003 (ip), vehicle: saline with Tween-80): 4 of 6
survivor count (dose: 30.0 mg/kg/injection, schedule: Q01DX009 (ip), vehicle: Klucel (hydroxypropylcellulose) (HPC)): 0 of 10 and 9 of 10
survivor count (dose: 30.0 mg/kg/injection, schedule: Q01DX009 (ip), vehicle: other): 0 of 10
survivor count (dose: 30.0 mg/kg/injection, schedule: Q01DX009 (oral), vehicle: Klucel (hydroxypropylcellulose) (HPC)): 7 of 10
survivor count (dose: 30.0 mg/kg/injection, schedule: Q01DX009 (oral), vehicle: other): 0 of 10
survivor count (dose: 40.0 mg/kg/injection, schedule: Q01DX009 (ip), vehicle: saline with Tween-80): 1 of 6
survivor count (dose: 40.0 mg/kg/injection, schedule: Q04DX003 (ip), vehicle: saline with Tween-80): 0 of 6
survivor count (dose: 60.0 mg/kg/injection, schedule: Q01DX009 (oral), vehicle: Klucel (hydroxypropylcellulose) (HPC)): 5 of 10
survivor count (dose: 60.0 mg/kg/injection, schedule: Q01DX009 (oral), vehicle: other): 0 of 10
T/C (dose: 50.0 micrograms/kg/injection, schedule: Q03HX008 (ip), vehicle: other): 130 % of control
T/C (dose: 50.0 micrograms/kg/injection, schedule: Q03HX020 (ip), vehicle: other): 143 % of control
T/C (dose: 50.0 micrograms/kg/injection, schedule: Q12HX010 (ip), vehicle: other): 131 % of control
T/C (dose: 100.0 micrograms/kg/injection, schedule: Q01DX005 (ip), vehicle: other, evaluated on day 30): 129 % of control
T/C (dose: 100.0 micrograms/kg/injection, schedule: Q01DX005 (ip), vehicle: other, evaluated on day 60): 128 % of control [9 of 10 alive]
survivor count (dose: 100.0 micrograms/kg/injection, schedule: Q01DX005 (iv), vehicle: other): 2 of 10
T/C (dose: 100.0 micrograms/kg/injection, schedule: Q03HX008 (ip), vehicle: other): 138 % of control
survivor count (dose: 100.0 micrograms/kg/injection, schedule: Q12HX004 (iv), vehicle: other): 6 of 10
T/C (dose: 100.0 micrograms/kg/injection, schedule: Q12HX010 (ip), vehicle: other): 137 % of control
survivor count (dose: 200.0 micrograms/kg/injection, schedule: Q01DX001 (iv), vehicle: other): 0 of 10
T/C [1]: 143 % of control [9 of 10 alive]
survivor count [1]: 0 of 10
survivor count (dose: 200.0 micrograms/kg/injection, schedule: Q01DX005 (iv), vehicle: other): 0 of 10 (2×)
survivor count (dose: 200.0 micrograms/kg/injection, schedule: Q03HX020 (ip), vehicle: other): 5 of 10
T/C (dose: 200.0 micrograms/kg/injection, schedule: Q04DX002 (ip), vehicle: other): 144 % of control
survivor count (dose: 200.0 micrograms/kg/injection, schedule: Q04DX002 (iv), vehicle: other): 0 of 10
T/C (dose: 200.0 micrograms/kg/injection, schedule: Q12HX004 (ip), vehicle: other): 131 % of control
survivor count (dose: 400.0 micrograms/kg/injection, schedule: Q01DX005 (ip), vehicle: other): 0 of 10 and 9 of 10
survivor count (dose: 400.0 micrograms/kg/injection, schedule: Q01DX005 (iv), vehicle: other): 0 of 10
survivor count (dose: 400.0 micrograms/kg/injection, schedule: Q03HX008 (ip), vehicle: other): 4 of 10
survivor count (dose: 400.0 micrograms/kg/injection, schedule: Q03HX020 (ip), vehicle: other): 0 of 10
survivor count (dose: 400.0 micrograms/kg/injection, schedule: Q04DX002 (ip), vehicle: other): 6 of 10
T/C (dose: 400.0 micrograms/kg/injection, schedule: Q12HX004 (ip), vehicle: other): 144 % of control
survivor count (dose: 400.0 micrograms/kg/injection, schedule: Q12HX010 (ip), vehicle: other): 6 of 10
survivor count (dose: 800.0 micrograms/kg/injection, schedule: Q01DX005 (ip), vehicle: other): 0 of 10 (2×)
survivor count (dose: 800.0 micrograms/kg/injection, schedule: Q01DX005 (iv), vehicle: other): 0 of 10
survivor count (dose: 800.0 micrograms/kg/injection, schedule: Q04DX002 (ip), vehicle: other): 1 of 10
survivor count (dose: 800.0 micrograms/kg/injection, schedule: Q12HX004 (ip), vehicle: other): 3 of 10
survivor count (dose: 1600.0 micrograms/kg/injection, schedule: Q01DX001 (ip), vehicle: other): 0 of 10
survivor count (dose: 1600.0 micrograms/kg/injection, schedule: Q01DX005 (ip), vehicle: other): 0 of 10
survivor count (dose: 1600.0 micrograms/kg/injection, schedule: Q01DX005 (iv), vehicle: other): 0 of 10
survivor count (dose: 1600.0 micrograms/kg/injection, schedule: Q04DX002 (ip), vehicle: other): 0 of 10
